## Assay results

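A cell line overexpressing EP4 prostanoid receptors, stimulated with a low (about EC15) PGE2 dose; cAMP read by HTRF FRET after a short room-temperature incubation.
Compounds were tested at 20 µM final. A low (about EC15) PGE2 dose was present.
Percent cAMP induction as a fraction of the 1 µM PGE2 response, averaged over three replicates; a higher value means more cAMP.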

Values are in %.
Common to all entries: measured here: EP4 receptor counter-screen.
Part of the compounds only, not a random draw; the main read-out is not listed here.

structure,condition,cAMP induction (%)
CC(C)C1(C)N=C(c2ncccc2C(=O)O)NC1=O (stereo not given),-,4.18
Cc1cc(SC(C)C(=O)O)nc2ccccc12 (stereo not given),percent of 1 uM PGE2 response; plus low (about EC15) PGE2 agonist,50.77
O=C(CC(Sc1ccccc1)c1cccs1)c1ccco1 (stereo not given),percent of 1 uM PGE2 response; plus low (about EC15) PGE2 agonist,8.5
COc1ccc(OC)c(C2=Nn3c(nnc3-c3ccco3)SC2)c1,percent of 1 uM PGE2 response; plus low (about EC15) PGE2 agonist,3.447
CC(=C\c1ccccc1)/C=C1/SC(=S)N(C(C(=O)O)C(C)C)C1=O (stereo not given),percent of 1 uM PGE2 response; plus low (about EC15) PGE2 agonist,-4.24
CCCOC(=O)c1ccc(NC(=O)c2cn(CC)c3nc(C)ccc3c2=O)cc1,percent of 1 uM PGE2 response; plus low (about EC15) PGE2 agonist,63.01
CCOC(=O)/C(N=Nc1c(Br)cc(Br)cc1Br)=C(\C)O,percent of 1 uM PGE2 response; plus low (about EC15) PGE2 agonist,-1.403
Cc1cc(C)c(S(=O)(=O)N(C2=NCCS2)S(=O)(=O)c2c(C)cc(C)cc2C)c(C)c1,percent of 1 uM PGE2 response; plus low (about EC15) PGE2 agonist,0.06
COc1ccc(N2C(=O)N(Cc3ccc(C)cc3)c3ccccc3S2(=O)=O)cc1,percent of 1 uM PGE2 response; plus low (about EC15) PGE2 agonist,7.87
c1ccc(C2=Nc3ccccc3NC(c3ccccc3)C2)cc1 (stereo not given),percent of 1 uM PGE2 response; plus low (about EC15) PGE2 agonist,3.393
CCC(=O)N(CCC(Cc1ccccc1)c1ccco1)Cc1ccco1 (stereo not given),percent of 1 uM PGE2 response; plus low (about EC15) PGE2 agonist,-12.6
CCOc1ccccc1COC(=O)c1cccc(-n2cnnn2)c1,percent of 1 uM PGE2 response; plus low (about EC15) PGE2 agonist,12.46
Cc1ccccc1Nc1c(-c2ccccn2)nc2ccccn12,percent of 1 uM PGE2 response; plus low (about EC15) PGE2 agonist,3.467
CC(C)CCNC(=O)c1c(N)n(CC2CCCO2)c2nc3ccccc3nc12 (stereo not given),-,-8.973
Cc1ccc(-c2nnn(CC(=O)N(Cc3cccs3)C(C(=O)NC3CCCC3)c3ccncc3)n2)cc1 (stereo not given),percent of 1 uM PGE2 response; plus low (about EC15) PGE2 agonist,-4.843
COC(=O)c1cc2ccsc2n1Cc1ccccc1F,percent of 1 uM PGE2 response; plus low (about EC15) PGE2 agonist,-6.787
COc1cc2c(cc1OC)-c1cc(Nc3ccc4c(c3)OCCO4)nc(=O)n1CC2,percent of 1 uM PGE2 response; plus low (about EC15) PGE2 agonist,8.79
CCc1ccc(OCc2n[nH]c(=S)n2C(C)CCCC(C)C)cc1 (stereo not given),percent of 1 uM PGE2 response; plus low (about EC15) PGE2 agonist,-2.953
C/C(CCc1oc2ccc(Cl)cc2c1-c1ccc(C)o1)=N\O,percent of 1 uM PGE2 response; plus low (about EC15) PGE2 agonist,-4.51
Cc1cccc(-c2csc(N)c2C(=O)OC(C)C)c1,percent of 1 uM PGE2 response; plus low (about EC15) PGE2 agonist,3.583
O=C(Nc1cc(C(F)(F)F)ccc1-n1cncn1)c1ccc(-c2ccccc2)cc1,percent of 1 uM PGE2 response; plus low (about EC15) PGE2 agonist,14.92
CCCn1c2ccccc2c2nc3ccccc3nc21,percent of 1 uM PGE2 response; plus low (about EC15) PGE2 agonist,7.177
Cc1ccccc1-n1c(Cn2c(=O)sc3ccccc32)nnc1SCC(=O)N1CCCC1,percent of 1 uM PGE2 response; plus low (about EC15) PGE2 agonist,-8.023
Cc1ccccc1NC(=O)/C(=C/c1ccccc1)c1ccccc1,percent of 1 uM PGE2 response; plus low (about EC15) PGE2 agonist,0.5733
Cc1cnn(-c2nc(-c3ccccc3)cc(-c3ccccc3)n2)c1,percent of 1 uM PGE2 response; plus low (about EC15) PGE2 agonist,-15.12
CCC(=O)Oc1ccc2c(C)cc(=O)oc2c1C(=O)c1ccccc1,percent of 1 uM PGE2 response; plus low (about EC15) PGE2 agonist,-13.49
COc1cc2nc(N3CCN(C(=O)C4CCCO4)CC3)nc(N)c2cc1OC (stereo not given),percent of 1 uM PGE2 response; plus low (about EC15) PGE2 agonist,17.39
CCN1C(=O)/C(=C2/C=CC=CN2C)SC1=S,percent of 1 uM PGE2 response; plus low (about EC15) PGE2 agonist,0.05
Cc1ccc(C)c(N=C2CCCN2Cc2ccccc2)c1C#N,percent of 1 uM PGE2 response; plus low (about EC15) PGE2 agonist,-4.64
CN(Cc1cccs1)c1nc(-c2cccnc2)nc2ccccc12,percent of 1 uM PGE2 response; plus low (about EC15) PGE2 agonist,-10.01
Cc1ccc(CN2C(=O)/C(=C\c3ccc(C(=O)NCc4cccnc4)cc3)Oc3ccccc32)cc1,percent of 1 uM PGE2 response; plus low (about EC15) PGE2 agonist,0.7467
COc1ccc(C(=O)O)cc1NC(=S)NC(=O)c1ccc(-c2ccc(Cl)cc2)o1,percent of 1 uM PGE2 response; plus low (about EC15) PGE2 agonist,-10.78
N#CC1(Cc2ccccc2Cl)c2ccccc2C=CN1C(=O)c1ccccc1 (stereo not given),percent of 1 uM PGE2 response; plus low (about EC15) PGE2 agonist,-3.067
Brc1cccc(-c2nnc(SCc3ccon3)n2-c2ccccc2)c1,percent of 1 uM PGE2 response; plus low (about EC15) PGE2 agonist,-3.707
CCSc1nc2ccccc2n1Cc1ccccc1F,percent of 1 uM PGE2 response; plus low (about EC15) PGE2 agonist,-5.397
CCn1c2ccc(Cl)cc2c2nc3ccccc3nc21,percent of 1 uM PGE2 response; plus low (about EC15) PGE2 agonist,16.46
O=C(c1cccs1)N1N=C(c2ccccc2)CC1c1ccc(O)cc1 (stereo not given),percent of 1 uM PGE2 response; plus low (about EC15) PGE2 agonist,-5.537
CCCCOc1ccc(-c2c(C(=O)Nc3ccccc3)c(C)[nH]c(=S)c2C#N)cc1,percent of 1 uM PGE2 response; plus low (about EC15) PGE2 agonist,64.59
Cc1ccc(C)n1-c1ccc(N(C)C)cc1,percent of 1 uM PGE2 response; plus low (about EC15) PGE2 agonist,4.71
CCOC(=O)c1c(CC(C)C)csc1N,percent of 1 uM PGE2 response; plus low (about EC15) PGE2 agonist,7.693
COC(=O)c1c(NC(NC(=O)C(C)C)C(Cl)(Cl)Cl)sc2c1CCCC2 (stereo not given),percent of 1 uM PGE2 response; plus low (about EC15) PGE2 agonist,-9.04
COc1cccc(/C=N/c2oc(-c3ccccc3)cc2C#N)c1O,percent of 1 uM PGE2 response; plus low (about EC15) PGE2 agonist,-19.17
Cc1ccccc1N=C1SCC(=O)N1Cc1ccccc1,percent of 1 uM PGE2 response; plus low (about EC15) PGE2 agonist,-0.8233
CCOC(=O)c1ccc(CN(Cc2ccc(C)cc2)S(=O)(=O)c2cccc([N+](=O)[O-])c2)cc1,percent of 1 uM PGE2 response; plus low (about EC15) PGE2 agonist,-2.833
CCCCOc1ccccc1Cn1c(=O)oc2ccc(C)cc21,percent of 1 uM PGE2 response; plus low (about EC15) PGE2 agonist,6.43
O=C(c1ccco1)N(Cc1cccc([N+](=O)[O-])c1)c1ccc(Br)cc1,percent of 1 uM PGE2 response; plus low (about EC15) PGE2 agonist,11.17
S=c1[nH]nc(-c2ccccc2)n1/N=C/c1ccc(-c2ccccc2Cl)o1,percent of 1 uM PGE2 response; plus low (about EC15) PGE2 agonist,-0.9667
O=C(O)c1nn(CC(=O)N(C2CCCCC2)C2CCCCC2)c(=O)c2ccccc12,percent of 1 uM PGE2 response; plus low (about EC15) PGE2 agonist,-7.77
CCSc1cc(N2CCOCC2)nc(-c2ccc(Cl)cc2)n1,percent of 1 uM PGE2 response; plus low (about EC15) PGE2 agonist,22.28
Cc1cccc(OCCCC(=O)N2CCCc3ccccc32)c1C,percent of 1 uM PGE2 response; plus low (about EC15) PGE2 agonist,-24.14
CCSc1ncnc2sc3c(c12)CCC3,percent of 1 uM PGE2 response; plus low (about EC15) PGE2 agonist,17.2
COC(=O)c1ccc(CSc2ncnc3c2oc2ccccc23)o1,percent of 1 uM PGE2 response; plus low (about EC15) PGE2 agonist,51.23
O=C(O)c1cc2c(s1)-c1ccccc1OC2,percent of 1 uM PGE2 response; plus low (about EC15) PGE2 agonist,12.52
CCc1cc(-c2[nH]ncc2-c2ccc3c(c2)OCO3)c(O)cc1O,percent of 1 uM PGE2 response; plus low (about EC15) PGE2 agonist,1.587
CCCc1cc(-c2nc(N)ncc2-c2ccc3c(c2)OCCCO3)c(O)cc1OC,percent of 1 uM PGE2 response; plus low (about EC15) PGE2 agonist,-2.7
OC1(c2ccc(Br)cc2)CN(c2ccccc2)C2=[N+]1CCS2 (stereo not given),percent of 1 uM PGE2 response; plus low (about EC15) PGE2 agonist,2.293
O=C(c1cn(Cc2ccccc2)c2ccccc12)C1CC1,-,-1.22
Clc1ccc(Cn2c(/C=C/c3ccco3)nc3ccccc32)cc1,percent of 1 uM PGE2 response; plus low (about EC15) PGE2 agonist,-4.34
O=C(O)c1oc(C(=O)O)c(C(=O)O)c1C(=O)O,percent of 1 uM PGE2 response; plus low (about EC15) PGE2 agonist,15.55
Cc1cc(C(=O)Nc2cccc(/C=C/C(=O)O)c2)c(C)o1,percent of 1 uM PGE2 response; plus low (about EC15) PGE2 agonist,7.417
O=C(O)c1cccc(NN=C2c3ccccc3-c3ccccc32)c1,percent of 1 uM PGE2 response; plus low (about EC15) PGE2 agonist,-11.51
O=C(O)c1nc2nc(Cl)c(Cl)nc2[nH]1,percent of 1 uM PGE2 response; plus low (about EC15) PGE2 agonist,13.27
Cc1ccc(C(=O)N2N=C(c3ccccc3)CC2(O)C(F)(F)F)o1 (stereo not given),percent of 1 uM PGE2 response; plus low (about EC15) PGE2 agonist,4.677
Cc1cccc(-n2c(=S)[nH]c3c(oc4ccccc43)c2=O)c1,percent of 1 uM PGE2 response; plus low (about EC15) PGE2 agonist,60.83
Cc1ccc(O)c(C2=Nc3ccccc3N=C(c3cccs3)C2)c1,percent of 1 uM PGE2 response; plus low (about EC15) PGE2 agonist,21.97

Some entries from above, unchanged:

* COC(=O)c1ccc(CSc2ncnc3c2oc2ccccc23)o1 [percent of 1 uM PGE2 response; plus low (about EC15) PGE2 agonist] | cAMP induction 51.23%
* CCCCOc1ccccc1Cn1c(=O)oc2ccc(C)cc21 [percent of 1 uM PGE2 response; plus low (about EC15) PGE2 agonist] | cAMP induction 6.43%
* CCCOC(=O)c1ccc(NC(=O)c2cn(CC)c3nc(C)ccc3c2=O)cc1 [percent of 1 uM PGE2 response; plus low (about EC15) PGE2 agonist] | cAMP induction 63.01%
* Cc1cc(SC(C)C(=O)O)nc2ccccc12 (stereo not given) [percent of 1 uM PGE2 response; plus low (about EC15) PGE2 agonist] | cAMP induction 50.77%
* Cc1ccc(C)c(N=C2CCCN2Cc2ccccc2)c1C#N [percent of 1 uM PGE2 response; plus low (about EC15) PGE2 agonist] | cAMP induction -4.64%

The results are deposited in PubChem (AID1080; Emory University Molecular Libraries Screening Center, 2008).